Tested on: 320 wild-type protein kinases
Experiment: ProQinase Kinase Profiler single-point inhibition, selectivity score
Type: biochemical
Details: 1 μM

## Cc1nc(Nc2ncc(C(=O)Nc3c(Cl)ccnc3C)s2)cc(N2CCN(CCO)CC2)n1 [Compound B3, N-(4-chloro-2-methylpyridin-3-yl)-2-((6-(4-(2-hydroxyethyl)piperazin-1-yl)-2-methylpyrimidin-4-yl)amino)thiazole-5-carboxamide]
  Number of kinases inhibited to <5% residual activity: 30 kinases
  Number of kinases inhibited to less than 1% residual activity: 13 kinases
